Test results as given in PubChem BioAssay AID1347075 (National Center for Advancing Translational Sciences (NCATS), 2019).
Among all 400,000 compounds or so, about 5,500 (1.4%) were called active. A call without a number means that no potency is given here. Listed are the inconclusive results; actives and inactives stand elsewhere. Calls follow the shape of the dose curve; as a rule, active = well fitted cell-killing curve with a large enough effect; inconclusive = small, poorly fitted or top-dose-only effect, or effect the other way; inactive = flat fitted curve, though single readings scatter.

Assay: qHTS assay for MDR1-selective chemotherapeutics: Primary screen using the parental adenocarcinoma cell KB-3-1; also: nearly all actives have a fitted effect of over 60% in size
Conditions: KB-3-1 viability, CellTiter-Glo ATP luminescence, 72 h
Description: A prime difficulty in effectively treating cancer is the development of cellular resistance to multiple structurally unrelated anticancer drugs, a phenomenon known as multidrug resistance (MDR). […] Numerous strategies to overcome P-gp-mediated MDR have been explored, including the design of drugs that evade recognition and efflux, and development of inhibitors to block efflux and restore drug accumulation. […] An alternative approach is to exploit resistance by identifying drugs that target MDR cells over the non-resistant parental cells from which they were selected. […] The development of MDR1-selective agents represents a new strategy for resolving multidrug resistance, as it remains a long-standing clinical challenge for cancer chemotherapy.
Our goal is to identify compounds that selectively kill P-gp-expressing MDR cells. We will identify MDR1-selective compounds by comparing toxicity of compounds in the screening library against parental, drug-naive (KB-3-1) adenocarcinoma cells as well as their drug-selected MDR sub-line (KB-V1). The differential toxicity of compounds against these two cell lines will be used to identify MDR1-selective compounds, whose cytotoxicity is potentiated, rather than diminished, by P-gp expression. This assay will be utilized to conduct a quantitative high-throughput screen (qHTS) in collaboration with the NIH Chemical Genomics Center to identify selective agents, and probe hits arising from the screen will be validated using secondary assays and characterized through a well-established follow-up research program. This screen was run against the entire NCGC library collection of about 400,000 compounds.
NIH Molecular Libraries Probe Production Network [MLPCN]
NIH Chemical Genomics Center [NCGC]
PI: Michael Gottesman PhD, National Cancer Institute, NIH
Briefly, 5 microL of media containing either KB-3-1 cells (columns 1-2, 4-48) are dispensed into Greiner white, treated solid-bottom 1536-well assay plates (media-only control is added to column 3). Compounds are then transferred via Kalypsys pin tool equipped with 1536-pin array (10 nL slotted pins, V&P Scientific, San Diego, CA). Following addition of compound, the plates are incubated at 37 degrees C for 72 hours. CellTiter-Glo (2.5 µL/well) is then added, and the plates are read in a ViewLux reader (Perkin-Elmer, clear luminescence filter, 1 second exposure, 1x binning) following a 10 minute incubation. All cells are dispensed in DMEM phenol-red free media containing 10% FBS.
Library plates were screened starting from the lowest and proceeding to the highest concentration. […]
Potency is read from the fitted curve at half-maximal effect.

SMILES	Potency
O=C1C(O)=C([N+](=O)[O-])C(=O)C(O)=C1[N+](=O)[O-]	inconclusive
O=[N+]([O-])c1cc([N+](=O)[O-])c(Nc2ccc(Cl)cc2)c([N+](=O)[O-])c1	inconclusive: 9.2 µM
Cc1cc(N(CCCl)CCCl)ccc1C=O	inconclusive: 16.4 µM
Cc1ccc(Nc2c([N+](=O)[O-])cc([N+](=O)[O-])cc2[N+](=O)[O-])cc1	inconclusive
